From patent US6958331B1, “Bradykinin receptor antagonists” (Novartis AG, priority 1999, dated 2005)
Not every detail of the peptide structures is certain; ends, links or a residue may be inferred. Square brackets hold non-standard residues; d marks the D form. Peptide text beside a SMILES is read from it. Oic = O=C(O)[C@@H]1C[C@@H]2CCCC[C@@H]2N1; Hyp = O=C(O)[C@@H]1C[C@@H](O)CN1; dTic = O=C(O)[C@H]1Cc2ccccc2CN1; 2Thi = N[C@@H](Cc1cccs1)C(=O)O

Target: T1, human bradykinin B1 receptor (Homo sapiens, UniProt P46663)
T1 construct: expressed in transfected cells; membranes
T1 sequence (P46663 1-353): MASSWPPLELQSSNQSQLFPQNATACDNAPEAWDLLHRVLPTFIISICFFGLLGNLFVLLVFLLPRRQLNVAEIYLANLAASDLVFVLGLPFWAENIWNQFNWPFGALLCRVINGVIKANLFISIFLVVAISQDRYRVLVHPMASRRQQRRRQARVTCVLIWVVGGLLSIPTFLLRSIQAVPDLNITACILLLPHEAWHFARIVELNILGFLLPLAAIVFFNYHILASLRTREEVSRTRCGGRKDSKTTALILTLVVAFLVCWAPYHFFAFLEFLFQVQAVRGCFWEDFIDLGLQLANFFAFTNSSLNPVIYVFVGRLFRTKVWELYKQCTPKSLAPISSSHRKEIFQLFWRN
Assay: Test I: Bradykinin Receptor Binding Assay ([3H]desArg10-kallidin displacement, HEK 293 membranes)
Settings: displacement of [3H]desArg10-kallidin, membranes of HEK 293 cells expressing human bradykinin B1 receptor, 4° C., 60 min; read-out: K1 values

N=C(N)NCCC[C@@H](N)C(=O)N[C@@H](CCCNC(=N)N)C(=O)N1CCC[C@H]1C(=O)N1C[C@H](O)C[C@H]1C(=O)NCC(=O)N[C@@H](Cc1cccs1)C(=O)N[C@@H](CO)C(=O)N1Cc2ccccc2C[C@@H]1C(=O)N1[C@H](C(=O)O)C[C@@H]2CCCC[C@@H]21 [desArg^10HOE, D-Arg-[Hyp^3, Thi^5, D-Tic^7, Oic^8]desArg^9bradykinin] (H-[dR]RP[Hyp]G[2Thi]S[dTic][Oic]-OH; N-terminus and C-terminus assumed)
Ki: 63 nM
